The target in assay [1] is CK1α splice variant 2, endogenous in A375 cells (human (endogenous in A375)) (UniProt P48729). In words: co-IP; A375 lysate, untransfected or transfected with untagged MDM2; MDM2 (antibodies 2A10, 2A9, 4B2, 3G5, SMP14) or CK1α (antibody C-19) immunoprecipitated on Protein G Sepharose; Western blot. A general note: Immunoblotting shows a protein as a band on a membrane.
Assay [2] deals with T1, CK1α peptide 35 (biotin-SGSG-15-mer) (human).
T1 sequence (peptide, biotin on the N-terminus): SGSGDYMYLRQLFRILFRT
Put plainly: pull-down; 10 µg biotinylated CK1α peptide on streptavidin-agarose columns; 0.5 mg pre-cleared A375 lysate, 1 hour at room temperature; immunoblot for MDM2; only the target purified.

Protein sequences, listed by entry. Tags and fused reporters are not part of them. Lines headed by an entry give the natural chain unless they say otherwise; changes in a name come on top.
UniProt P48729: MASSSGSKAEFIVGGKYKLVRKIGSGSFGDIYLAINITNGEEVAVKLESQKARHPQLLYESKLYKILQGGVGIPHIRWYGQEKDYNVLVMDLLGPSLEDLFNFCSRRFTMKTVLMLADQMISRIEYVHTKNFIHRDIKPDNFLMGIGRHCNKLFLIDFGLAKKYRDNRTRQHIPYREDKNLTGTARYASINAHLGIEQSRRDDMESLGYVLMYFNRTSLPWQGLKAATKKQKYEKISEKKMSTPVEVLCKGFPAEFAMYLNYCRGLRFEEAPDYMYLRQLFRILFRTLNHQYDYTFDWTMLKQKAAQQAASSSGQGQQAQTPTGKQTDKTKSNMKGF
UniProt Q00987: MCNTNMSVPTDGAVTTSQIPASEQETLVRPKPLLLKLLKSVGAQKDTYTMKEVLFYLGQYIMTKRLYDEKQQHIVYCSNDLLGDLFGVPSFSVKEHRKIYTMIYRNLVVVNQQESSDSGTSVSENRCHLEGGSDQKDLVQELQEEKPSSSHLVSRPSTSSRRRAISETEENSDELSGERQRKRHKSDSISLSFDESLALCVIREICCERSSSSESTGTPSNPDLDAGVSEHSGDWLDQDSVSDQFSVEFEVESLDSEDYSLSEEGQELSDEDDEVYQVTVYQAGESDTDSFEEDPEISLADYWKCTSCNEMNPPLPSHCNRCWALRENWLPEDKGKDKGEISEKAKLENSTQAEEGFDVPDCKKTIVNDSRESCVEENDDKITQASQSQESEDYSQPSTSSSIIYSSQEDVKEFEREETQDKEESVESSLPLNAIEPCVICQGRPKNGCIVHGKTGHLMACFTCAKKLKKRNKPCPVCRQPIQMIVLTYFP

In assay [3] the target is One-STrEP-tagged CK1α splice variant 2 (human) (UniProt P48729). Put plainly: pull-down; One-STrEP-tagged CK1α sp1 or sp2 transfected into A375; 3 mg lysate (0.2% Triton) on strep-Tactin MacroPrep, 1 hour at 4°C; Western blot for endogenous MDM2.
For assay [4], the target named is GST-CK1α splice variant 2 (human) (UniProt P48729). Put plainly: ELISA; competition: fixed amount of MDM2 pre-incubated 20 min at room temperature with a titration of peptide in 25 mM Hepes (pH 7.5), 50 mM KCl, 10 mM MgCl2, then added to GST-CK1α sp2 (20 ng/well) coated on the plate; both purified. (In general: ELISA stands for enzyme-linked immunosorbent assay.)
The target in assay [5] is T1, CK1α peptide 35 (biotin-SGSG-15-mer) (human). In words: ELISA; biotinylated CK1α peptides (1 µg per well) on streptavidin coated plates; 20 ng GST-cleaved MDM2 in 3% BSA/PBS, 1 hour; anti-MDM2, ECL; both purified.
Assay [6] has as its target GST-CK1α splice variant 2 (human) (UniProt P48729). Put plainly: ELISA; 20 ng GST-CK1α sp1 or sp2 coated on the plate, titration of GST-cleaved MDM2 in 3% BSA/PBS, 1 hour at room temperature; anti-MDM2 2A10, ECL; both purified.
For assay [7], the target named is untagged MDM2 transfected into A375 cells (pCMV wild type MDM2) (UniProt Q00987). In words: co-IP; A375 lysate, untransfected or transfected with untagged MDM2; MDM2 (antibodies 2A10, 2A9, 4B2, 3G5, SMP14) or CK1α (antibody C-19) immunoprecipitated on Protein G Sepharose; Western blot.
For assay [8], the target named is murine double minute chromosome 2 (MDM2) oncoprotein, endogenous in A375 cells (human (endogenous in A375)) (UniProt Q00987). The description is as above.
Assay [9] has as its target purified GST-cleaved MDM2 (UniProt Q00987). Put plainly: ELISA; inverse: 50 ng GST-cleaved MDM2 coated on the plate, titration of GST-CK1α sp1 or sp2 in 3% BSA/PBS, 1 hour at room temperature; anti-CK1α, ECL; both purified.

Results are given in words; binding and its absence hold for the method and conditions named. For some of these results: Binding seen in cells or lysates may run through a third protein. Some entries that bind do so weakly or less than the wild type.

For the substance “murine double minute chromosome 2 (MDM2) oncoprotein, endogenous in A375 cells (from UniProt Q00987 1-491)”, the binding entry in assay [1], in assay [2] and in assay [3] was “binds” each time.

In the case of “untagged MDM2 transfected into A375 cells (pCMV wild type MDM2) (from UniProt Q00987 1-491)”, the binding result in assay [1] is reported as “binds”.

Turning to “purified GST-cleaved MDM2 (from UniProt Q00987 1-491)”, the binding result in assay [4], in assay [5] and in assay [6] was “binds” throughout.

In the case of “CK1α splice variant 2, endogenous in A375 cells (from UniProt P48729-1 1-337)”, the binding entry in assay [7] and in assay [8] was “binds” throughout.

Take “GST-CK1α splice variant 2 (from UniProt P48729-1 1-337)”: the binding result in assay [9] is “binds”.

The record behind these values is publication PMC3423359.
